Test results published in patent US20140364430A1, “METHODS FOR TREATING SCHIZOPHRENIA” (Afraxis Holdings, Inc., priority 2009, published 2014).
At least one compound was matched to its structure with a doubt left.

System: double transgenic GFP-M/DN-DISC1 mice
Assay: In vivo monitoring of dendritic spine plasticity by two photon laser scanning microscopy
Conditions: oral gavage 1 mg/kg once per day; relative to untreated control animals

SMILES: Cc1[nH]c(/C=C2\C(=O)Nc3ccc(F)cc32)c(C)c1C(=O)NC[C@H](O)CN1CCOCC1 [SU14813]
- spine morphology: rescue defective spine morphology
